These are yes or no findings as the source states them, for the method shown. In cells and extracts the contact can be indirect. A yes stands for co-enrichment or nearness to the bait. Other partners may have been found. For some assays here: A no says only that the protein was not detected with the bait. For some assays here: Sequences can lack the tags named with a protein.

The chains behind the UniProt entries cited, without tags or fusion partners.
UniProt Q9M658: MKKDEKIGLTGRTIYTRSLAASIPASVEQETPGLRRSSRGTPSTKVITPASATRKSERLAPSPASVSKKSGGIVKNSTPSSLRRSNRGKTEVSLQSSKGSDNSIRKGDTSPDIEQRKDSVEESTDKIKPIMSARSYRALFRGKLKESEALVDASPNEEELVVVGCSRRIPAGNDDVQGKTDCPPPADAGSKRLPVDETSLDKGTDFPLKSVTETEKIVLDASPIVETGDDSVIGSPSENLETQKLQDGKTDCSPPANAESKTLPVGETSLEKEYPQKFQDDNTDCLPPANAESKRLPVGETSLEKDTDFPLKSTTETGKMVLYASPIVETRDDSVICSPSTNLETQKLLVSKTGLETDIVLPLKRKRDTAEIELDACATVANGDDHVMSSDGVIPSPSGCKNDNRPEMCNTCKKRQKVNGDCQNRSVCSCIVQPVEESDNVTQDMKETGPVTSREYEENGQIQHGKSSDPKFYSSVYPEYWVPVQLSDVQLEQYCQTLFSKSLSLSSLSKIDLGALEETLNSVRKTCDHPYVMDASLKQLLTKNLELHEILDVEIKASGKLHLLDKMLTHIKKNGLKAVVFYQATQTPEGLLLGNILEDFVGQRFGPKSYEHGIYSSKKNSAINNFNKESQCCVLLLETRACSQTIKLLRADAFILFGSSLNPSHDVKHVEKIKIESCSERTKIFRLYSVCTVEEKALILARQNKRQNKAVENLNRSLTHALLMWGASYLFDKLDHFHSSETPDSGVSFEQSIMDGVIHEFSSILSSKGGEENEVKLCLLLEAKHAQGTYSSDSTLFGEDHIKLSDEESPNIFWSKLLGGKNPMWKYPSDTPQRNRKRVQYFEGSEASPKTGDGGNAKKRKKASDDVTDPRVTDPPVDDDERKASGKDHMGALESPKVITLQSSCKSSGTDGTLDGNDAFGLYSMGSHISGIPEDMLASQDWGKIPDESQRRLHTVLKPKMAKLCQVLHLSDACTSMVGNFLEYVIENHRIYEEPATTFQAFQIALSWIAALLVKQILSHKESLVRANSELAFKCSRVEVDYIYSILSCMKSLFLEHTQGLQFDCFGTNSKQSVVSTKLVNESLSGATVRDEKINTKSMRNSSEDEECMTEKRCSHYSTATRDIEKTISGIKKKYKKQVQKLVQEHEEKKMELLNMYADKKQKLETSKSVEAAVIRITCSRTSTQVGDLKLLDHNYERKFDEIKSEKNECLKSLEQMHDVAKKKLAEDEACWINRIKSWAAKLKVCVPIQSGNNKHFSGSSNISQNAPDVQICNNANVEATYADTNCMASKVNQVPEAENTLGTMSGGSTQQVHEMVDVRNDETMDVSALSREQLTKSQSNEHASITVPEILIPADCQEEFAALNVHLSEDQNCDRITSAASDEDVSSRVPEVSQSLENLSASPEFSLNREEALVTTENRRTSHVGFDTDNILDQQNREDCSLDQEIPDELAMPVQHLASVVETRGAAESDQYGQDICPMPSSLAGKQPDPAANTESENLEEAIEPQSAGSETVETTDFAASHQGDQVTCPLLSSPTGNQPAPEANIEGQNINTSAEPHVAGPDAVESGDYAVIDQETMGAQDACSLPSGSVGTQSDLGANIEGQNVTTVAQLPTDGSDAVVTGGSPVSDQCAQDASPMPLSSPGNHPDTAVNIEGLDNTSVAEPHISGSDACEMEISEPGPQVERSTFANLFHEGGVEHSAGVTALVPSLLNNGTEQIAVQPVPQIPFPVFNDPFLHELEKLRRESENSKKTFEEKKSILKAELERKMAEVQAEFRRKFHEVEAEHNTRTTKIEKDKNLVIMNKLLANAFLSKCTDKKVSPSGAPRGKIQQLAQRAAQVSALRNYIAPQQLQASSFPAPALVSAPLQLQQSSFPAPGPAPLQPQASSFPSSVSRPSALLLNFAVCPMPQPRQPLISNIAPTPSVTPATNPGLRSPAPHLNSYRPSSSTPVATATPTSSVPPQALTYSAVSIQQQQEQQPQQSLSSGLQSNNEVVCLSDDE

The chains are these.
T1: AIPP3-FLAG (Arabidopsis thaliana) (UniProt Q8RXT5)
T1 sequence: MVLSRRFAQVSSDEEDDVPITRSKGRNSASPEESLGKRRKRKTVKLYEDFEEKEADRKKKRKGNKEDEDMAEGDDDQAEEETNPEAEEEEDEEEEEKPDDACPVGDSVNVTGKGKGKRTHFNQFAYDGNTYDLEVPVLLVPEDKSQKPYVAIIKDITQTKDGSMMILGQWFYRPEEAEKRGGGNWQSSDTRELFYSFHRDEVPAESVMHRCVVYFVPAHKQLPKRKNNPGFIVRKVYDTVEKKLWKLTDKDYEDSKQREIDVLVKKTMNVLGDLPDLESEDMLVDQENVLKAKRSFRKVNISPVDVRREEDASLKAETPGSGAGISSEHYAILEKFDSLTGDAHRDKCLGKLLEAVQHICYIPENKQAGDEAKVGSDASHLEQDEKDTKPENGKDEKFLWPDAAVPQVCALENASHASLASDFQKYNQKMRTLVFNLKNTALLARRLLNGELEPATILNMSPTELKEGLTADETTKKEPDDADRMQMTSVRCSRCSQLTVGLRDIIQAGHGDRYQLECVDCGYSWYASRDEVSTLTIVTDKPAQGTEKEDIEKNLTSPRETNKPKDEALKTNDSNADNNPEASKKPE

T2: PIAL2-FLAG (Arabidopsis thaliana) (UniProt F4JYG0)
T2 sequence: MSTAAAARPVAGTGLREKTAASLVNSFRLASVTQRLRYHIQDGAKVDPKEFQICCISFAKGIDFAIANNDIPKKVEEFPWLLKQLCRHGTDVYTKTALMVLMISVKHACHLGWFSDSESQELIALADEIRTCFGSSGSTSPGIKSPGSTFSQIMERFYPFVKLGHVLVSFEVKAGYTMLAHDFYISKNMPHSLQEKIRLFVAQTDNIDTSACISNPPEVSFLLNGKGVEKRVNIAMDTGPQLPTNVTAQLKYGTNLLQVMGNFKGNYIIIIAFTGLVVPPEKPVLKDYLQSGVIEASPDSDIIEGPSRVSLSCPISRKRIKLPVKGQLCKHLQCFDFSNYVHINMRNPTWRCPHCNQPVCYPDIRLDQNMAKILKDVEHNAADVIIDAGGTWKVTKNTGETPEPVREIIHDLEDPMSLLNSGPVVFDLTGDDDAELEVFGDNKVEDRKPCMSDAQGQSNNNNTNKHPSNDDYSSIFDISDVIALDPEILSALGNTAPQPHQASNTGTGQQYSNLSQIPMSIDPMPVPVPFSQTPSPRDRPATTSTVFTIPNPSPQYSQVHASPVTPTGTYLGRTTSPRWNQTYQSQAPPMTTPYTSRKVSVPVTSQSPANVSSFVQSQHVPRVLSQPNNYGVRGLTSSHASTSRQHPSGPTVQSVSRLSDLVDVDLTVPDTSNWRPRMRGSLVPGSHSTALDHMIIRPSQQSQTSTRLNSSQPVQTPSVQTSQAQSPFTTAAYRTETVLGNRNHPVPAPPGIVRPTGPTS

T3: PHD1-FLAG (Arabidopsis thaliana) (UniProt B3H578)
T3 sequence: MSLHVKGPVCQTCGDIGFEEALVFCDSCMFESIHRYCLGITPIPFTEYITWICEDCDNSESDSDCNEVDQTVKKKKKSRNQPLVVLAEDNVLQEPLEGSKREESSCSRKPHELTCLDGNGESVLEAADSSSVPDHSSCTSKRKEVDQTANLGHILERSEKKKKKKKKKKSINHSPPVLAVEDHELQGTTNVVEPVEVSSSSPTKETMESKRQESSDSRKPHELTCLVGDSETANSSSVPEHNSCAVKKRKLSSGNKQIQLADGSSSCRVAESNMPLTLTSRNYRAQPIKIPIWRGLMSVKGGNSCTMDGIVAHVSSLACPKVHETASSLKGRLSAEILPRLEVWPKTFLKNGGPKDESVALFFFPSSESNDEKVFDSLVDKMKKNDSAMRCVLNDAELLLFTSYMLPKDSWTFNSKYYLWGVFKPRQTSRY

B1: PHD1, endogenous (protein, UniProt B3H578 1-431)
chain: T3 sequence
B2: AIPP3, endogenous (protein, UniProt Q8RXT5 1-587)
chain: T1 sequence
B3: PIAL2, endogenous (protein, UniProt F4JYG0 1-760)
chain: T2 sequence
B4: PIAL1, endogenous (protein, UniProt A0A0A7EPL0 1-847)
chain: MVIPATSRFGFRAEFNTKEFQASCISLANEIDAAIGRNEVPGNIQELALILNNVCRRKCDDYQTRAVVMALMISVKSACQLGWFPERETQELLAIIDLMWNGFSCPENVTSCVNSPVTLISQVIERFYPCVKLGHILVSFEAKPESKMMMKDFHISKKMPHSPKQKVGLFVVRTEDISRSNCIVHPQGVSFLLNGKGIDKRVNISMESGPQLPTNVTALLNLGANLLQAIGCFGGSYLIAIAFMDVIPLPNKPLLKDYVHPEVVGSNSDCDIIEGPSRISLSCPISRTRIKLPVKGHVCKHLQCFDFWNYVNMNTRRPSWRCPHCNQSVCYTDIRVDQKLRKILEEVGRNAADVVISADGTWMVETENDEDVELVPETTHDHGDPNSFINLGPTVKNPARDENEMETSTQVEEHNPCLSEIQGPSNDTHRPASDYTMLNQSHTSTNTLPQLPRTLNAFDGQQFVNLPQVINTRDSPASQALPMTFSPTPSPQDILATNAANFGTSMPAAQSSQFQGSHVTSLGNCEGRTSDLMARWNHIYGRVQTQFPPAPLSHHHYSMQNQSPSPAQQRPVPSYIAHPQTFHVNYGENADQRWMPSSIAHPQTLPVNYGGNTNQRPIPSSIAHPQTLPVNYRGNTDHRSTPYSITHLQTLLNYGGNADQRPMPSSITNLQTLPATYGGYAHQRPMSSSITHPRTSPVNYGGTPDQRPMPSSITHPQTLPVSYGGTTDQILNPGGAMGQFSSREFMNLTPANTENWRPQSRMRGSVAPGTGYDHMIIHPTRPVHPQAQTPPAPLSTSYDGADEIQAFIGHPSYPVSNNETQAGTSSLPVAEGLGYSGSFWSMPPETW

The target in one experiment is MOM2-FLAG (Arabidopsis thaliana). Briefly: affinity purification with mass spectrometry; native IP-MS from unopened flower buds of FLAG-tagged transgenic plants, Col-0 as control; IP buffer 50 mM Tris-HCl pH 8.0, 150 mM NaCl, 5 mM EDTA, 10% glycerol, 0.1% Tergitol; anti-FLAG M2 magnetic beads, 4 °C, 2 h; eluted with 3xFLAG peptides.
For B1, the binding result is “binds”.

On to B2, for which the binding result was “binds”.

For B3, the binding entry is recorded as “binds”.

Regarding B4, the binding result was “binds”.

A further experiment has as its target miniMOM1-FLAG (CMM2 domain of MOM1 together with a nuclear localization signal) (Arabidopsis thaliana). Described as above.
As to B1, the binding result is listed as “no binding”.

Consider B2, for which the binding entry is “no binding”.

With B3, the binding result is “binds”.

In the case of B4, the binding entry is “binds”.

The target of another experiment is T1, AIPP3-FLAG (Arabidopsis thaliana). Described as above.
For the molecule B1, the binding result is “binds”.

Take B3: the binding entry is “binds”.

Regarding B4, the binding result was “binds”.

Another experiment concerns the target T2, PIAL2-FLAG (Arabidopsis thaliana). The description is as above.
As for B1, the binding result is “binds”.

Consider B2, for which the binding result is given as “binds”.

On to B4, for which the binding entry is “binds”.

The target of another experiment is MOM1-FLAG (MORPHEUS' MOLECULE1 with C-terminal 3xFLAG) (Arabidopsis thaliana) (UniProt Q9M658). The description is as above.
For B2, the binding entry is “binds”.

In the case of B3, the binding result is recorded as “binds”.

For B4, the binding result was “binds”.

The next experiment deals with T3, PHD1-FLAG (Arabidopsis thaliana). Described as above.
As for B2, the binding entry is listed as “binds”.

For the molecule B3, the binding result is given as “binds”.

For the molecule B4, the binding result is reported as “binds”.

The record behind these values is publication PMC10338684.
